Measurements taken from PubChem BioAssay AID493014 (National Center for Advancing Translational Sciences (NCATS), 2011).
This is one part of the list. These are further read-outs of the screen, such as a control signal, another cell line or another target. No call is given for them. The list favours compounds with an active or inconclusive main result. Words in brackets tell the shape of the fitted curve; partial curves, single points and poor fits give uncertain potencies.

Assay: qHTS Assay to Find Inhibitors of Chronic Active B-Cell Receptor Signaling
Conditions: ABC-DLBCL IkBa-CBG/CBR reporter, luminescence ratio (green luciferase fused to IkBa over red control in TMD8 lymphoma cells), 4 h
Method in brief: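 Cell line TMD8 (human ABC DLBCL), stably expressing tet-inducible CBG68-IkBa fusion and CBR; IMDM/0.5% FBS; cpd up to 46 uM; dox induction, 4 h, 37C/5% CO2; dual luminescence; green/red ratio; MG132 control.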

[1] = measured here: CBR red luminescence, cell number
[2] = measured here: IkBa-CBG green luminescence

| SMILES | AC50 [1] | AC50 [2] |
| --- | --- | --- |
| CCOC(=O)c1ccc(NC(=S)NCc2ccco2)cc1 | 1.78 µM [rising, partial curve, poor fit] |  |
| Cc1ccc(-c2nnn(CCOc3cccc(Br)c3)n2)cc1 | 16.4 µM [rising, single point] |  |
| CCCC1(C(=O)O)NC(c2ccccc2O)C2C(=O)N(Cc3ccccc3)C(=O)C21 (stereo unspecified) | 6.51 µM [falling, full curve, poor fit] |  |
| Cc1cc(C)c(C(=O)COc2cccnc2[N+](=O)[O-])cc1C | 29.1 µM [falling, partial curve, poor fit] |  |
| Cc1[nH]n(-c2ccccc2)c(=O)c1N=Nc1ccccc1C(=O)O | 12.6 µM [falling, partial curve] |  |
| O=C(CCC1N=C2c3ccccc3N=C(SCc3ccc(F)cc3)N2C1=O)NC1CCCCC1 (stereo unspecified) | 3.16 µM [rising, partial curve, poor fit] |  |
| CCOC(=O)CSc1nnc(Cn2nnc3ccccc32)n1-c1ccc(F)cc1 | 3.98 µM [falling, single point] |  |
| CCCOC(=O)c1ccc(O)cc1 | 23.1 µM [rising, partial curve, poor fit] |  |
| O=C(Nc1ccc2c(c1)nc1n2CCSC1)c1ccco1 | 7.08 µM [falling, partial curve] |  |
| CCOC(=O)c1ccc(NC(=O)c2ccc(C)c(S(=O)(=O)N3CCOCC3)c2)cc1 | 25.9 µM [falling, single point] |  |
| CS(=O)(=O)c1ccc(Cl)c(NC(=O)C2CC(=O)N(Cc3ccccc3)C2)c1 (stereo unspecified) | 20.6 µM [falling, single point] |  |
| CCN1/C(=C/c2ccc3cc(C)ccc3[n+]2CC)Sc2cc(C)ccc21 |  | 12.6 µM [rising, partial curve, poor fit] |
| CCCCCOc1ccc(C(=O)NCC(=O)NCC(=O)OCC)cc1 | 12.6 µM [rising, single point] |  |
| O=C(Nc1ccccn1)c1ccc(Cl)c(S(=O)(=O)N2CCCC2)c1 | 16.4 µM [falling, single point] |  |
| CCn1c(CNc2cccc(Cl)c2)nnc1SCc1ccccc1 | 12.6 µM [falling, single point] |  |
| COc1ccc(-c2csc(Nc3ccccn3)n2)cc1 | 10 µM [falling, partial curve] |  |
| c1cncc(CNc2cccc(-c3nc4ccccc4[nH]3)c2)c1 | 7.31 µM [falling, partial curve, poor fit] |  |
| CO/N=C/C(C#N)=C/c1cc(C(=O)c2ccc(F)cc2)cn1C | 35.5 µM [rising, single point] |  |
| COc1ccc(C(=O)NC(=S)NNC(=O)c2c(-c3ccccc3)noc2C)cc1OC | 0.398 µM [rising, full curve, poor fit] |  |
| CCN1CCCC1CNC(=O)C(=O)Nc1cccc(OC)c1 (stereo unspecified) | 29.1 µM [falling, single point] |  |
| COc1cc(/C=N/Nc2ccc(S(N)(=O)=O)cc2)cc(OC)c1OC |  | 15.8 µM [falling, single point] |

| SMILES | AC50 [1] | AC50 [2] |
| --- | --- | --- |
| CCOC(=O)c1ccc(NC(=O)c2nn(CC)cc2Br)cc1 | 23.1 µM [falling, single point] |  |
| C=C(CCC(=O)c1ccccc1)C(=O)c1ccccc1 | 11.6 µM [falling, partial curve] | 13 µM [rising, partial curve, poor fit] |
| COc1ccc(C(=O)CSc2nnc(C3CC3)n2N)cc1 | 3.26 µM [rising, full curve, poor fit] |  |
| Cc1ccc(N=Nc2c(N)n(-c3ccccc3)[nH]c2=O)cc1 | 2.24 µM [falling, full curve] |  |
| O=C(COC(=O)c1cc(S(=O)(=O)N2CCOCC2)ccc1F)Nc1ccc(Cl)cn1 | 29.1 µM [falling, partial curve, poor fit] |  |
| O=C(O)c1cccc(N/N=C/c2ccc(OC(F)(F)F)cc2)c1 | 20 µM [falling, partial curve, poor fit] |  |
| CCOC(=O)c1sc(NC(=O)c2ccc(Cl)s2)cc1C | 0.058 µM [falling, full curve] |  |
| COc1ccc(/C(O)=C2/C(=O)C(=O)N(CCCC(=O)O)C2c2ccc(OC)c(OC)c2)cc1 (stereo unspecified) | 8.91 µM [falling, partial curve, poor fit] |  |
| Nc1nc(SCC(=O)N2CCN(c3ccc(F)cc3)CC2)n[nH]1 | 29.1 µM [rising, single point] | 20.6 µM [falling, partial curve, poor fit] |
| CC1=Nc2ccc(C)cc2/C1=C/c1c(N)n2oc(C)cc2nc1=O | 3.16 µM [falling, full curve] |  |
| Oc1cc2ccccc2cc1-c1n[nH]c(=S)o1 | 22.4 µM [falling, single point] |  |
| Cc1nn(-c2ccccc2)c(C)c1C(=O)OCC(=O)N1CC(=O)Nc2ccccc21 | 20 µM [falling, single point] |  |
| CCCCCCC[C@@H](C/C=C/CCC(=O)N(C)C/C(=C/Cl)C/C(=C\C(=O)N1C[C@H](O)CC1=O)OC)OC | 18.4 µM [falling, single point] |  |
| CC(=O)C(C)Oc1ccc2c3c(c(=O)oc2c1)CCCC3 (stereo unspecified) | 6.31 µM [rising, partial curve, poor fit] |  |
| O=C(Nc1ccccc1C(=O)N/N=C/c1ccncc1)c1ccccc1 | 7.08 µM [falling, partial curve] |  |
| CC(=O)c1cccc(NS(=O)(=O)c2ccc(N/C=C/C(=O)c3ccc(F)cc3)cc2)c1 | 11.6 µM [falling, partial curve, poor fit] |  |
| O=C(O)c1ccc2c(c1)C(=O)N(c1cccc(-c3nc4ccccc4s3)c1)C2=O | 8.91 µM [rising, partial curve] |  |
| Cc1ccc(OCc2cc(C(=O)N(C)CCc3nc4ccccc4[nH]3)no2)cc1C | 11.2 µM [falling, partial curve, poor fit] |  |
| O=C(Nc1c(F)cccc1F)c1ccc(-n2cncn2)nc1 | 11.2 µM [falling, partial curve] |  |
| O=C(N/N=C/C1=Cc2ccccc2OC1)c1ccncc1 | 10 µM [falling, partial curve] |  |
| O=c1[nH]cnc2scc(C3COc4ccccc4O3)c12 (stereo unspecified) | 28.2 µM [falling, partial curve, poor fit] |  |

| SMILES | AC50 [1] | AC50 [2] |
| --- | --- | --- |
| CCOC(=O)N1CCN(C(=O)c2ccccc2N(Cc2ccccc2)S(=O)(=O)c2ccc(OC)cc2)CC1 |  | 22.4 µM [falling, single point] |
| CCOc1ccc2nc(NC(=O)CN3CCC(n4nnc5cc(F)ccc54)CC3)sc2c1 | 29.1 µM [falling, single point] |  |
| O=C(Nc1ccc(S(=O)(=O)Nc2nccs2)cc1)c1cc(-c2ccccc2)nc2ccccc12 | 13 µM [falling, partial curve] | 20.6 µM [rising, partial curve] |
| COc1cccc(C(=O)Nc2c3c(nn2-c2ccc(Cl)cc2)CS(=O)(=O)C3)c1 | 12.6 µM [falling, single point] |  |
| N=c1c2c(n(Cc3ccc(Cl)cc3)c3c1CCC3)CCC2 | 10 µM [falling, partial curve, poor fit] |  |
| Nc1nc(Nc2ccccc2F)nc(NCc2ccccc2)c1[N+](=O)[O-] | 31.6 µM [rising, partial curve, poor fit] |  |
| O=S(=O)(Nc1ccncc1Cl)c1ccccc1 | 29.1 µM [falling, single point] |  |
| COc1ccc(-c2csc(N(CCCN(C)C)C(=O)c3ccc(C(C)(C)C)cc3)n2)cc1 | 12.6 µM [falling, single point] |  |
| O=C(CSc1ccc2ccccc2n1)NC1CC1 | 25.9 µM [rising, partial curve, poor fit] |  |
| COc1ccc(C2=NOC(Cn3nc(-c4ccccc4)cc3C(=O)NCc3cccs3)C2)cc1 (stereo unspecified) | 6.51 µM [rising, partial curve, poor fit] |  |
| C=C1c2ccccc2S(=O)(=O)N(Cc2ccccc2)C1COCc1ccccc1 (stereo unspecified) | 20 µM [falling, partial curve, poor fit] |  |
| Cc1cc(Br)ccc1OCC(=O)NNC(=O)C(=O)Nc1ccccc1 | 35.5 µM [falling, single point] |  |
| Cc1ccc(CNC(=O)CSc2nc3n[nH]c(C)c3c(=N)n2-c2cccc(C)c2)cc1 | 6.31 µM [falling, partial curve, poor fit] |  |
| c1cc2nnnn2nc1N1CCCCCC1 | 29.1 µM [rising, single point] |  |
| COc1ccc(CCNC(=O)c2cccc(Br)c2)cc1OC | 17.8 µM [falling, partial curve, poor fit] |  |
| C/C(N=Nc1nc2ccccc2s1)=N\Nc1ccccc1O | 20 µM [rising, single point] |  |
| COc1ccc(C(=O)NCC(=O)OCn2nnc3ccccc3c2=O)cc1OC | 35.5 µM [falling, partial curve, poor fit] |  |
| COc1ccc(N(CC(=O)N2CCN(c3ccc(F)cc3)CC2)S(=O)(=O)c2c(C)n[nH]c2C)cc1 | 0.112 µM [falling, full curve, poor fit] |  |
| COc1cc(NC(=S)NC(=O)c2ccc(C)cc2C)ccc1NC(=O)c1cccs1 | 1.46 µM [rising, partial curve, poor fit] |  |
| Cc1csc(=O)n1CC(=O)OCC(=O)Nc1ccc(F)c(F)c1 | 9.2 µM [rising, partial curve] |  |
| Cc1ccc(C)c(-n2c(-c3csc(C)c3)n[nH]c2=S)c1 | 29.1 µM [falling, single point] |  |
